Reference: patent publication CN117946265A
Substitutions are numbered along the chain they refer to. These are yes or no findings as the source states them, for the method shown. Some results given as binding are weak or reduced against the parent protein; the word gives no strength.

B1: C032 (antibody, human IgG2, kappa, V domains shown)
VH: EVQLQQSGPELVKPGASVKISCKASGYTFTDYYMNWVKQSHGKSLEWIGDINPNNGGTSYNQKFKGKATLTVDKSSSTAYMELRSLTSEDSAVYYCASSGNSYVDYWGQGTTLTVSS
VL: DIVMTQSHKFMSTSVGDRVSITCKASQDVSTAVAWYQQKPGQSPKLLIYWASTRHTGVPDRFTGSGSGTDYTLTISSVQAEDLALYYCQQHYSSPYTFGGGTKLEIKR
B2: C032NA (antibody, human IgG2, kappa, V domains shown)
VH: B1 VH with G56A
VL: B1 VL
B3: C032QG (antibody, human IgG2, kappa, V domains shown)
VH: B1 VH with N55Q
VL: B1 VL
B4: mAb032 (antibody, V domains shown)
VH: B1 VH
VL: DIVMTQSHKFMSTSVGDRVSITCKASQDVSTAVAWYQQKPGQSPKLLIYWASTRHTGVPDRFTGSGSGTDYTLTISSVQAEDLALYYCQQHYSSPYTFGGGTKLEIK

molecular target: 猴CX3CL1胞外区蛋白 cynoCX3CL1-His (猴 (cyno)); test: ELISA, antigen coated at 1 μg/mL

Binder | binding
B1 | binds
B2 | binds
B3 | binds
B4 | binds
